Results: US20250295610A1, “NEUROPROTECTIVE AGENTS FOR USE IN THE TREATMENT OF OPTIC NEUROPATHIES” (The Board of Trustees of the Leland Stanford Junior …, priority 2021, published 2025)
At least one compound was matched to its structure with a doubt left.

Test system: CHOP promoter-driven luciferase (CHOP-Luc) in HEK293T cells
Assay: CHOP-Luc reporter cell-based assay (HTS and retest)
Parameters: species or system human
Conditions: compound at 20 μM, Tm/Tg 1 μM, 24 hours (FIG. 9e)
Method: ER stress reporter cell lines.
Cell-based HTS. The HTS to identify CHOP expression inhibitors was performed at the Stanford High-Throughput Bioscience Center with small molecule libraries containing 4846 total known bioactive, FDA approved drugs and clinical trial compounds; libraries included Biomol FDA, Biomol ICCB, Microsource (MS) Spectrum, Sigma LOPAC, and NIH Clinical Collection (NIH-CC). All the compounds were run in 7-point dose response based on a previous publication; except the NIH Clinical collection (446 compounds) which were tested in duplicate due to the small quantity of compounds on hand. Most of the NIH-CC was screened at 10 µM, but this varied per compound. […] We used the Pin Tool to transfer 100 nL of the compounds into 50 μL final volume. […] AeraSeal sterile adhesive microplate seals (Excel Scientific; Victorville, CA) were used to seal plates that were incubated at 5% CO2, 37° C. for 24 hours, when luciferase activity was assayed by adding 10 μL of Bright™-Glo Luciferase reagent (Promega) to each well and detected by a Tecan Infinite M1000 Pro plate reader. […] Luciferase activity of all the tested compounds was determined by meta-analysis of luciferase activity in different cell lines under the control of a generic or other promoters. […]

**Q.** With `Cc1cc2c(s1)Nc1ccccc1N=C2N1CCN(C)CC1` [olanzapine] as the molecule, how does the CHOP-luciferase activity read?
**A.** inhibited
